Test system: HIF-1α–NanoLuc
Assay: HIF-1α–NanoLuc reporter gene assay (qHTS primary and confirmatory screens)
Format: cell-based
Settings: Homo sapiens; Table S2; primary screen; read-out: Pathway inhibitors (primary screen) HIF-1α–NanoLuc Activity IC50

IC50: 33.5 µM
SMILES: Cc1ccc(NC(=O)c2ccc(CN3CCN(C)CC3)cc2)cc1Nc1nccc(-c2cccnc2)n1 [Imatinib]
